In the supplement of paper PMC8728848:
The other results are listed elsewhere or left out.

How the values were obtained:
Test in all cases: glycan array binding signal (z-score within array); higher = stronger binding
Conditions in all cases: glycan notation: IUPAC condensed, linker removed
[1] = molecular target: Fuc(a1-2)Gal(b1-4)GlcNAc(b1-3)Gal(b1-4)GlcNAc(b1-3)Gal(b1-4)GlcNAc
In short: (§1)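 Negative Z-scores can be read as non-binding. The Z-score is calculated within each array and then averaged across arrays of one protein sequence at different concentrations or buffers and across linkers. Arrays, 3228 in all, were curated from the Consortium for Functional Glycomics database and kept only where the protein sequence was available.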

[2] = molecular target: Fuc(a1-2)Gal(b1-4)GlcNAc(b1-3)GalNAc
In short: as §1

[3] = molecular target: Fuc(a1-2)Gal(b1-4)GlcNAc(b1-3)[Fuc(a1-2)Gal(b1-4)GlcNAc(b1-6)]GalNAc
In short: as §1

[4] = molecular target: Fuc(a1-2)Gal(b1-4)GlcNAc(b1-3)[Fuc(a1-3)[Gal(b1-4)]GlcNAc(b1-6)]Gal(b1-4)Glc
In short: as §1

[5] = molecular target: Fuc(a1-2)Gal(b1-4)GlcNAc(b1-6)GalNAc
In short: as §1

[6] = molecular target: Fuc(a1-2)Gal(b1-4)GlcNAc6S
In short: as §1

[7] = molecular target: Fuc(a1-2)Gal(b1-4)[Fuc(a1-3)]GlcNAc
In short: as §1

[8] = molecular target: Fuc(a1-2)Gal(b1-4)[Fuc(a1-3)]GlcNAc(b1-2)Man(a1-3)[Fuc(a1-2)Gal(b1-4)[Fuc(a1-3)]GlcNAc(b1-2)Man(a1-6)]Man(b1-4)GlcNAc(b1-4)[Fuc(a1-6)]GlcNAc
In short: as §1

[9] = molecular target: Fuc(a1-2)Gal(b1-4)[Fuc(a1-3)]GlcNAc(b1-2)[Fuc(a1-2)Gal(b1-4)[Fuc(a1-3)]GlcNAc(b1-4)]Man(a1-3)[Fuc(a1-2)Gal(b1-4)[Fuc(a1-3)]GlcNAc(b1-2)Man(a1-6)]Man(b1-4)GlcNAc(b1-4)GlcNAc
In short: as §1

[10] = molecular target: Fuc(a1-2)Gal(b1-4)[Fuc(a1-3)]GlcNAc(b1-3)Gal(b1-4)[Fuc(a1-3)]GlcNAc
In short: as §1

[11] = molecular target: Fuc(a1-2)Gal(b1-4)[Fuc(a1-3)]GlcNAc(b1-3)Gal(b1-4)[Fuc(a1-3)]GlcNAc(b1-3)Gal(b1-4)[Fuc(a1-3)]GlcNAc
In short: as §1

[12] = molecular target: Fuc(a1-2)Gal(b1-4)[Fuc(a1-3)]GlcNAc(b1-3)GalNAc
In short: as §1

[13] = molecular target: Fuc(a1-2)Gal(b1-4)[Fuc(a1-3)]GlcNAc(b1-3)[Neu5Ac(a2-6)Gal(b1-4)GlcNAc(b1-6)]Gal(b1-4)Glc
In short: as §1

[14] = molecular target: Fuc(a1-2)Gal3S(b1-4)GlcNAc
In short: as §1

[15] = molecular target: Fuc(a1-2)Gal6S(b1-3)GlcNAc
In short: as §1

[16] = molecular target: Fuc(a1-2)Gal6S(b1-3)GlcNAc6S
In short: as §1

[17] = molecular target: Fuc(a1-2)Gal6S(b1-4)Glc
In short: as §1

[18] = molecular target: Fuc(a1-2)Gal6S(b1-4)Glc6S
In short: as §1

[19] = molecular target: Fuc(a1-2)[Gal(a1-3)]Gal
In short: as §1

[20] = molecular target: Fuc(a1-2)[Gal(a1-3)]Gal(b1-3)GalNAc
In short: as §1

[21] = molecular target: Fuc(a1-2)[Gal(a1-3)]Gal(b1-3)GalNAc(b1-3)Gal(a1-4)Gal(b1-4)Glc
In short: as §1

[22] = molecular target: Fuc(a1-2)[Gal(a1-3)]Gal(b1-3)GlcNAc
In short: as §1

[23] = molecular target: Fuc(a1-2)[Gal(a1-3)]Gal(b1-3)GlcNAc(b1-2)Man(a1-3)[Fuc(a1-2)[Gal(a1-3)]Gal(b1-3)GlcNAc(b1-2)Man(a1-6)]Man(b1-4)GlcNAc(b1-4)GlcNAc
In short: as §1

[24] = molecular target: Fuc(a1-2)[Gal(a1-3)]Gal(b1-3)GlcNAc(b1-2)Man(a1-3)[Fuc(a1-2)[Gal(a1-3)]Gal(b1-3)GlcNAc(b1-2)Man(a1-6)]Man(b1-4)GlcNAc(b1-4)[Fuc(a1-6)]GlcNAc
In short: as §1

[25] = molecular target: Fuc(a1-2)[Gal(a1-3)]Gal(b1-3)GlcNAc(b1-3)GalNAc
In short: as §1

[26] = molecular target: Fuc(a1-2)[Gal(a1-3)]Gal(b1-3)GlcNAc(b1-6)GalNAc
In short: as §1

[27] = molecular target: Fuc(a1-2)[Gal(a1-3)]Gal(b1-4)Glc
In short: as §1

[28] = molecular target: Fuc(a1-2)[Gal(a1-3)]Gal(b1-4)GlcNAc
In short: as §1

[29] = molecular target: Fuc(a1-2)[Gal(a1-3)]Gal(b1-4)GlcNAc(b1-2)Man
In short: as §1

[30] = molecular target: Fuc(a1-2)[Gal(a1-3)]Gal(b1-4)GlcNAc(b1-2)Man(a1-3)[Fuc(a1-2)[Gal(a1-3)]Gal(b1-4)GlcNAc(b1-2)Man(a1-6)]Man(b1-4)GlcNAc(b1-4)GlcNAc
In short: as §1

B1: Pbx1CASH domain (Cryptococcus neoformans) (protein)
chain: MDETKPLWGNPRADGISLACKDSIVERNVVYDATDGAIVLFGSAGSTVKNNHVYARTRVILGGINLVDYEPWDGDYTNVKVHHNHLYALGRYFKVGIVIGPASWSDDTESVVHSASVTDNEFSGGYWGYGIVVASAKNFEVLRNKVIWDGEQGVARFSGVPGS
glycan array binding signal (z-score) [1]: -0.379 | glycan array binding signal (z-score) [2]: -0.241 | glycan array binding signal (z-score) [3]: 0.022 | glycan array binding signal (z-score) [4]: -0.729 | glycan array binding signal (z-score) [5]: -0.331 | glycan array binding signal (z-score) [6]: -0.382 | glycan array binding signal (z-score) [7]: -0.451 | glycan array binding signal (z-score) [8]: -0.203 | glycan array binding signal (z-score) [9]: 0.549 | glycan array binding signal (z-score) [10]: 0.33 | glycan array binding signal (z-score) [11]: -0.167 | glycan array binding signal (z-score) [12]: 2.39 | glycan array binding signal (z-score) [13]: 1.05 | glycan array binding signal (z-score) [14]: -0.881 | glycan array binding signal (z-score) [15]: -0.195 | glycan array binding signal (z-score) [16]: 2.12 | glycan array binding signal (z-score) [17]: -0.089 | glycan array binding signal (z-score) [18]: -0.361 | glycan array binding signal (z-score) [19]: -0.086 | glycan array binding signal (z-score) [20]: -0.524 | glycan array binding signal (z-score) [21]: 0.227 | glycan array binding signal (z-score) [22]: -0.239 | glycan array binding signal (z-score) [23]: -0.5 | glycan array binding signal (z-score) [24]: 1.03 | glycan array binding signal (z-score) [25]: 0.108 | glycan array binding signal (z-score) [26]: -0.739 | glycan array binding signal (z-score) [27]: -0.317 | glycan array binding signal (z-score) [28]: -0.382 | glycan array binding signal (z-score) [29]: -0.005 | glycan array binding signal (z-score) [30]: -0.744
